These are yes or no findings as the source states them, for the method shown. Binding seen in cells or lysates may run through a third protein. Some binding calls cover weakened binding; strength is not graded here.
T1: Bin2 (Bridging INtegrator-2) (human, UniProt Q9UBW5 1-565)
T1 construct: In vitro translated in the presence of 35S-methionine from the full-length cDNA
T1 sequence: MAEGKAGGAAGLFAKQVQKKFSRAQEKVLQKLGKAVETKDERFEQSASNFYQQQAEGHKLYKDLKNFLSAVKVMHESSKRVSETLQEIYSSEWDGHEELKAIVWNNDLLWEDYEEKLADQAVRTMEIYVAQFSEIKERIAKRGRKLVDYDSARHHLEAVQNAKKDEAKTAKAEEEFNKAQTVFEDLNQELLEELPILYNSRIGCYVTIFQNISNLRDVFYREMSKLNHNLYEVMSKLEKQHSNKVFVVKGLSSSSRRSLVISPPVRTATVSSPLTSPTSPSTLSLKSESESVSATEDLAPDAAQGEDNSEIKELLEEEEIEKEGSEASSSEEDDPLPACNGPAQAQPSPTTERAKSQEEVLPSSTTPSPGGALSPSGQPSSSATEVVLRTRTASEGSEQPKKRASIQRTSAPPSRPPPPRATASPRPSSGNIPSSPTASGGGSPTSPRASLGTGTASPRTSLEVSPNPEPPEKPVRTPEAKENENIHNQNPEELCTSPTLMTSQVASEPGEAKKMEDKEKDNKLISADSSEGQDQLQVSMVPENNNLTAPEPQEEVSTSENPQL


How the values were obtained:
[1] = molecular target: T1, Bin2 (Bridging INtegrator-2); assay: co-immunoprecipitation of in vitro translated proteins
[2] = molecular target: T1, Bin2 (Bridging INtegrator-2); assay: co-immunoprecipitation with anti-Bin1 antibody 99D of 35S-labelled cotranslated proteins, SDS-PAGE and fluorography
[3] = molecular target: T1, Bin2 (Bridging INtegrator-2); assay: co-immunoprecipitation of in vitro translated proteins, deletion mutant
From the text: Stable complexes have been reported in yeast between RVS161 and RVS167 and in brain between amphiphysin and brain-specific splice isoforms of Bin1 [Navarro et al., Biochim. Biophys. Acta, 1343: 187-192 (1997); Wigge et al., Mol. Biol. Cell 8: 2003-2015 (1997)]. Since Bin1 is expressed in hematopoietic cells, whether Bin2 and Bin1 could also form a stable biochemical complex was investigated. For coimmunoprecipitation experiments, Bin1 was in vitro translated in the presence or absence of Bin2 and complex formation was assessed by SDS-PAGE and fluorography after immunoprecipitation with the Bin1 monoclonal antibody 99D [Wechsler-Reya et al., Cancer Res. 57: 3258-3263 (1997)].
Other deletion mutants of Bin1 lacking the so-called Unique central region, the Myc-binding domain, or the SH3 domain, interacted with Bin2 with the same efficiency as wild-type Bin1 (data not shown). It was concluded that Bin1 and Bin2 formed a BAR domain-dependent complex in cells.

| binding [1] | binding [2] | binding [3] | Binder |
| --- | --- | --- | --- |
| binds | binds | – | Bin1 (Bridging INtegrator-1) (protein) AEMGSKGVTAGKIASNVQKKLTRAQEKVLQKLGKADETKDEQFEQCVQNFNKQLTEGTRLQKDLRTYLASVKAMHEASKKLNECLQEVYEPDWPGRDEANKIAENNDLLWMDYHQKLVDQALLTMDTYLGQFPDIKSRIAKRGRKLVDYDSARHHYESLQTAKKKDEAKIAKAEEELIKAQKVFEEMNVDLQEELPSLWNSRVGFYVNTFQSIAGLEENFHKEMSKLNQNLNDVLVGLEKQHGSNTFTVKA |
| – | – | binds | Bin1 deletion mutant Δ143-148 (protein) MAEMGSKGVTAGKIASNVQKKLTRAQEKVLQKLGKADETKDEQFEQCVQNFNKQLTEGTRLQKDLRTYLASVKAMHEASKKLNECLQEVYEPDWPGRDEANKIAENNDLLWMDYHQKLVDQALLTMDTYLGQFPDIKSRIAKDYDSARHHYESLQTAKKKDEAKIAKAEEELIKAQKVFEEMNVDLQEELPSLWNSRVGFYVNTFQSIAGLEENFHKEMSKLNQNLNDVLVGLEKQHGSNTFTVKA |

Reference: US20050214798A1 (WISTAR INSTITUTE OF ANATOMY AND BIOLOGY, published 2005)
